Counter-ions that a name gives are not always drawn. ± gives the standard deviation of the averaged measurements. This is one part of the list. The data scatter; read single values as rough.
These compounds were tested on hAMSC donor 2 (assay: transfection efficiency (EGFP+ cells / Hoechst count) fold change vs vehicle control (ratio); hAMSC are human adipose-derived mesenchymal stem cells given an EGFP-luciferase plasmid by lipofection; higher = enhanced transfection). Conditions: priming compound concentration 13 µM.

Compound | transfection efficiency
O=C1NC(=O)C(c2ccccc2)(c2ccccc2)N1 [Dilantin] | 1 ± 0.019
CC(C)C[C@H](NC(=O)[C@@H](COC(C)(C)C)NC(=O)[C@H](Cc1ccc(O)cc1)NC(=O)[C@H](CO)NC(=O)[C@H](Cc1c[nH]c2ccccc12)NC(=O)[C@H](Cc1cnc[nH]1)NC(=O)[C@@H]1CCC(=O)N1)C(=O)N[C@@H](CCCNC(=N)N)C(=O)N1CCC[C@H]1C(=O)NNC(N)=O [Goserelin acetate] | 0.978 ± 0.049
O=C1CN(/N=C/c2ccc(-c3ccc([N+](=O)[O-])cc3)o2)C(=O)N1 [Dantrolene sodium] | 1.12 ± 0.14
CCN(CC)CC(=O)Nc1c(C)cccc1C [Lidocaine] | 1.08 ± 0.24
C=CC[C@@H]1/C=C(\C)C[C@H](C)C[C@H](OC)[C@H]2O[C@@](O)(C(=O)C(=O)N3CCCC[C@H]3C(=O)O[C@H](/C(C)=C/[C@@H]3CC[C@@H](O)[C@H](OC)C3)[C@H](C)[C@@H](O)CC1=O)[C@H](C)C[C@@H]2OC [Tacrolimus] | 0.994 ± 0.19
CC[C@@H](CO)NCCN[C@@H](CC)CO [Ethambutol] | 1.16 ± 0.29
O=C(O)CCCc1ccccc1 [4-Phenylbutyric acid] | 1 ± 0.13
O=c1c(-c2ccccc2)c1-c1ccccc1 [Diphenylcyclopropenone] | 1.59 ± 0.32
CC(C)(C(=O)c1cccnc1)c1cccnc1 [Metyrapone] | 0.898 ± 0.11
COc1c(N2CCNC(C)C2)c(F)cc2c(=O)c(C(=O)O)cn(C3CC3)c12 (stereo not drawn) [Gatifloxacin] | 1.2 ± 0.14
Cc1cnc(C(=O)NCCc2ccc(S(=O)(=O)NC(=O)NC3CCCCC3)cc2)cn1 [Glipizide] | 0.793 ± 0.052
Clc1ccc(CO/N=C(\Cn2ccnc2)c2ccc(Cl)cc2Cl)c(Cl)c1 [Oxiconazole nitrate] | 0.595 ± 0.09
CN1CCN(CCCN2c3ccccc3Sc3ccc(Cl)cc32)CC1 [Prochlorperazine maleate] | 0.776 ± 0.11
C=C1/C(=C\C=C2/CCC[C@]3(C)[C@@H]([C@H](C)CCCC(C)(C)O)CC[C@@H]23)C[C@@H](O)C[C@@H]1O [Calcitriol] | 1.17 ± 0.11
C#C[C@]1(O)CC[C@H]2[C@@H]3CCc4cc(OC)ccc4[C@H]3CC[C@@]21C [Mestranol] | 1.18 ± 0.19
Nc1ccn([C@@H]2O[C@H](CO)[C@@H](O)[C@@H]2O)c(=O)n1 [Cytarabine] | 0.942 ± 0.2
COc1cccc2c1C(=O)c1c(O)c3c(c(O)c1C2=O)C[C@@](O)(C(C)=O)C[C@@H]3O[C@H]1C[C@H](N)[C@H](O)[C@H](C)O1 [Daunorubicin hydrochloride] | 0.679 ± 0.31
CC/C(=C(\c1ccccc1)c1ccc(OCCN(C)C)cc1)c1ccccc1 [Tamoxifen] | 0.581 ± 0.074
COc1ccc(CN2CCN(C(c3ccc(F)cc3)c3ccc(F)cc3)CC2)c(OC)c1OC [Lomerizine dihydrochloride] | 0.803 ± 0.13

Compound | transfection efficiency
CC(C)NCC(O)COc1cccc2ccccc12 (stereo not drawn) [Propranolol hydrochloride] | 0.817 ± 0.14
CN[C@@H]1[C@H](O)[C@H](NC)[C@H]2O[C@@]3(O)C(=O)C[C@@H](C)O[C@H]3O[C@@H]2[C@H]1O [Spectinomycin] | 0.989 ± 0.051
C=C[C@H]1CN2CC[C@H]1C[C@@H]2[C@@H](O)c1ccnc2ccc(OC)cc12 [Quinidine] | 0.96 ± 0.21
N[C@@H]1CONC1=O [D-Cycloserine] | 1.11 ± 0.035
CC(C)NCC(O)c1ccc(O)c(O)c1 (stereo not drawn) [Isoproterenol hydrochloride] | 1.04 ± 0.13
NC(=O)c1cccnc1 [Nicotinamide] | 0.917 ± 0.16
CC(=O)Oc1ccccc1C(=O)Nc1ncc([N+](=O)[O-])s1 [Nitazoxanide] | 0.801 ± 0.16
Cc1nc2ccccn2c(=O)c1CCN1CCC(C(=O)c2ccc(F)cc2)CC1 [Pirenperone] | 0.793 ± 0.063
CC(C)(C(=O)O)c1ccc(C(O)CCCN2CCC(C(O)(c3ccccc3)c3ccccc3)CC2)cc1 (stereo not drawn) [Fexofenadine hydrochloride] | 0.945 ± 0.17
CC1CNc2c(cccc2S(=O)(=O)N[C@@H](CCCNC(=N)N)C(=O)N2CC[C@@H](C)C[C@@H]2C(=O)O)C1 (stereo partly drawn) [Argatroban] | 1.23 ± 0.092
O=c1[nH]cnc2c1ncn2[C@H]1CC[C@@H](CO)O1 [Didanosine] | 0.943 ± 0.059
CC(C)NCC(O)COc1ccc(COCCOC(C)C)cc1 (stereo not drawn) [Bisoprolol fumarate] | 0.891 ± 0.1
CCN1CCN(c2cc3c(cc2F)c(=O)c(C(=O)O)cn3C2CC2)CC1 [Enrofloxacin] | 1.02 ± 0.28
O=C1N(c2ccccc2)c2ccccc2C1(Cc1ccncc1)Cc1ccncc1 [Linopirdine dihydrochloride] | 1.14 ± 0.22
CN(C)CCC=C1c2ccccc2COc2ccccc21 [Doxepin hydrochloride] | 0.69 ± 0.15
C[C@@H]1CN(CCCn2c3ccccc3c3ccccc32)C[C@H](C)N1 [Rimcazole dihydrochloride] | 0.861 ± 0.072
Nc1nc2ccc(OC(F)(F)F)cc2s1 [Riluzole hydrochloride] | 0.662 ± 0.1
NC(N)=Nc1nc(CSCC/C(N)=N/S(N)(=O)=O)cs1 [Famotidine] | 0.899 ± 0.092
CN(C)CCN(Cc1ccccc1)c1ccccn1 [Tripelennamine hydrochloride] | 1.16 ± 0.13

3 records drawn at random from the list so far:
Compound | transfection efficiency
NC(=O)c1cccnc1 [Nicotinamide] | 0.917 ± 0.16
O=C1N(c2ccccc2)c2ccccc2C1(Cc1ccncc1)Cc1ccncc1 [Linopirdine dihydrochloride] | 1.14 ± 0.22
CC(C)NCC(O)COc1cccc2ccccc12 (stereo not drawn) [Propranolol hydrochloride] | 0.817 ± 0.14

Reference: the supplement of paper PMC7238544
